Measured values published in paper PMC6886544.

Test system: H358 cells (KRAS mutant)
Experiment: CellTiter-Glo viability assay, H358;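 further: viable cell number estimated from ATP-dependent luminescence following exposure to serially diluted inhibitor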
Type: cell-based
Settings: Homo sapiens, NCI-H358, H358, 96 hours, read-out: KRAS CTG EC50 H358
Description: Structure determination and refinement.
PHASER (R.J. Read, Acta Crystallogr D Biol Crystallogr 2001, 57, 1373-1382) using structure PDB ID: 3G5D and 5J9Z as templates. The molecules in the asymmetric unit were manually adjusted using the program COOT (P. Emsley, K. Cowtan, Acta Crystallogr D Biol Crystallogr 2004, 60, 2126-2132). The refinement was performed with Phenix 1.10 (P.D. Adams, P.V.
Afonine, G. Bunkoczi, V.B. Chen, I.W. Davis, N. Echols, J.J. Headd, L.W. Hung, G.J. Kapral, R.W.
Grosse-Kunstleve, A.J. McCoy, N.W. Moriarty, R. Oeffner, R.J. Read, D.C. Richardson, J.S.
Richardson, T.C. Terwilliger, P.H. Zwart, Acta Cryst 2010, D66, 213-221). […]
Afterwards viability studies were carried out using CellTiter-Glo Assay (Promega, USA) that is a homogeneous method of determining the number of viable cells in culture. It is based on quantification of ATP, indicating the presence of metabolically active cells. […] Following incubation the luminescence was recorded on an EnVision microplate reader (Perkin Elmer) using 500 ms integration time. The data was then analyzed using the Quattro Research Software Suite for EC50-determination. As quality control the Z’-factor was calculated from 16 positive and negative control values. […] All data points were measured in duplicates for each plate and were replicated in at least two plates.

COc1cc2ncnc(Nc3ccc(F)c(Cl)c3)c2cc1OCCCN1CCOCC1 [Gefitinib, gefitinib, reference compound]
EC50: 10.8 ± 4.93 µM
